Results reported in article PMC11845518.
Residue numbers refer to the chain shown, from its start. No constants are given. Whether binding was seen depends on the method and setting. In cells and extracts the contact can be indirect. Some binding calls cover weakened binding; strength is not graded here.

The chains behind the UniProt entries cited, without tags or fusion partners.
UniProt Q13557: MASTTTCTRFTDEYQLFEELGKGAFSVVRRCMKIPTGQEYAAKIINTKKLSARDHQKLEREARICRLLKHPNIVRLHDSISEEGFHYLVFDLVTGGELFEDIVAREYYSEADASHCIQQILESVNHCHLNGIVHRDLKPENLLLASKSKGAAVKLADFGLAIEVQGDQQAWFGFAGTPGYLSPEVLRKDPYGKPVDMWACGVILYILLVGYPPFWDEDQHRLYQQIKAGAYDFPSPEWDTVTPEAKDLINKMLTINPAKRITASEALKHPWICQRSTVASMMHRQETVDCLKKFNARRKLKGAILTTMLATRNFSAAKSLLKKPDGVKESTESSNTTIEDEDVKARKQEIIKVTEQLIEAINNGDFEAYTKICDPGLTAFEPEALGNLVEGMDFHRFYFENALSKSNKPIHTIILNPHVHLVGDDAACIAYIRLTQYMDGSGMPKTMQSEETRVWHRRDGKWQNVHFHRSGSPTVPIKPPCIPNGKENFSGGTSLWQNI

Columns and labels:
PEAK2 W1382A = biological target: T1, PEAK2 W1382A (UniProt Q86YV5); assay: co-IP; association of PEAK2 and its mutants with CAMK2D (Supplementary Fig. 4); cells and details not shown; also with PEAK1 knockdown
T1 sequence: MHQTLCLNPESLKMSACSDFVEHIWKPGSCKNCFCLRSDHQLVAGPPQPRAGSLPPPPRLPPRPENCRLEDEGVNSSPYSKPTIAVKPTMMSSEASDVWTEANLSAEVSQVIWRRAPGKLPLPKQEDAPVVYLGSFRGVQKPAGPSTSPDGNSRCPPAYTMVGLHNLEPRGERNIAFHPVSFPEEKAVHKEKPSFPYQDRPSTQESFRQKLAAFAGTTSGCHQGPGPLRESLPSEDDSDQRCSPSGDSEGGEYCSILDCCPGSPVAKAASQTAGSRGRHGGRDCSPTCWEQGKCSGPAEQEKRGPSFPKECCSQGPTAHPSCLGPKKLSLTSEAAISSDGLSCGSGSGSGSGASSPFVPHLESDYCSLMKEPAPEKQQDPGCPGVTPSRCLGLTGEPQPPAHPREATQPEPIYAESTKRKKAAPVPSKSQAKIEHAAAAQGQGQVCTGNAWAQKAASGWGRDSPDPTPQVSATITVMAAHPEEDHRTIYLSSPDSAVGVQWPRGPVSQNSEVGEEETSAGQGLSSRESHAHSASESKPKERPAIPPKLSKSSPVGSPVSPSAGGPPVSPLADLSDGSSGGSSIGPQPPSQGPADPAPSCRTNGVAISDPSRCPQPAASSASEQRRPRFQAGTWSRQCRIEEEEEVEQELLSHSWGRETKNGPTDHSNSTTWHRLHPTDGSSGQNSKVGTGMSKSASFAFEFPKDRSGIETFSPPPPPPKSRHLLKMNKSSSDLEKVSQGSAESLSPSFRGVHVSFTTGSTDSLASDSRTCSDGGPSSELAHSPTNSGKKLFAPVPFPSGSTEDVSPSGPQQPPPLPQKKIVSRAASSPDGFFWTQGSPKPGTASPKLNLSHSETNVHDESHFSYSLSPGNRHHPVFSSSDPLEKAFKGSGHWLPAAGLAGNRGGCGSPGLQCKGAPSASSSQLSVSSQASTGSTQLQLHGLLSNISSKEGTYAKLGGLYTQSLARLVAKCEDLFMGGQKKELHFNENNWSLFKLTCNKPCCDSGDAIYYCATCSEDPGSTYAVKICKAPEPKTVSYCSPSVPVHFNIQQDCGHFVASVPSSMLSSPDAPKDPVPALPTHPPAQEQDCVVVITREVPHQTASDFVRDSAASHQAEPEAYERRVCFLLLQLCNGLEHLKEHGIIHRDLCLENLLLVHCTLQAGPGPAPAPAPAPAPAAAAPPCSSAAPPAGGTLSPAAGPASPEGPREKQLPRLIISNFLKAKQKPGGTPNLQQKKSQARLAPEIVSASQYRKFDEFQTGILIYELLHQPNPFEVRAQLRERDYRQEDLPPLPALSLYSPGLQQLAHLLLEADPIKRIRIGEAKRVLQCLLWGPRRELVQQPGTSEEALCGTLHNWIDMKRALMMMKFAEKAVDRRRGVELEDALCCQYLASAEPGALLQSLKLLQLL

PEAK2 L955A = biological target: T2, PEAK2 L955A (UniProt Q86YV5); assay: as above
T2 sequence: T1 sequence with L955A, A1382W

- binding (PEAK2 W1382A): binds
- binding (PEAK2 L955A): binds
Substance: CAMK2D (partner of PEAK2 in Supplementary Fig. 4) (from UniProt Q13557 1-499) (enzyme)
